Laboratory results published in PubChem BioAssay AID504834 (National Center for Advancing Translational Sciences (NCATS), 2011).
The campaign covered roughly 320,000 compounds. About 22,000 (6.9%) were called active. The inconclusive results got no clear call from the source; some entries with a clear call stand among them for comparison. Calls come from the whole dose curve; as a rule, active = well fitted inhibition curve with a large enough effect; inconclusive = small, poorly fitted or top-dose-only effect, or another doubt; inactive = no such curve, though single readings can be large or run the other way. A potency beside an inconclusive call is a rough fit, not a confirmed value.

assay: Primary qHTS for delayed death inhibitors of the malarial parasite plastid, 96 hour incubation; details: P. falciparum luciferase reporter growth; series mostly up to 28.7 µM; activity change, negative = inhibition: at the top concentration
Summary of the method: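 Two-generation exposure (96 h) targets delayed-death phenotype. Reporter parasites carrying integrated firefly luciferase, in red cells at 2% hematocrit and 0.05% parasitemia final, kept at 37 C, 5% CO2; luminescence loss indicates inhibition.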
% is set by controls: 0 for no effect and ±100 for the full control effect; potency is the fitted concentration of half-maximal effect.

SMILES	Potency	activity change, negative = inhibition
COc1ccc(Nc2ccccc2NC(=O)c2ccccc2Br)cc1	active: 2.08 µM	
O=C(N/N=C/c1cc(Cl)ccc1O)c1ccncc1	inconclusive: 1.47 µM [inhibitor, full curve]	
O=C(N/N=C1\CCCc2ccccc21)c1ccc([N+](=O)[O-])cc1		inactive: 136%
C=CCNC(=O)Cn1c(=O)c2c(ncn2CCC(C)C)n(Cc2ccccc2)c1=O		inactive: -1.54%
CCOC(=O)C(Cc1ccc(NC(C)=O)cc1)N1C(=O)c2ccccc2C1=O (stereo not given)		inactive: -2.96%
CCCCOc1ccc(C(=O)NCC(=O)NCC(c2ccc(F)cc2)N2CCOCC2)cc1 (stereo not given)	inconclusive: 18.5 µM [inhibitor, single point]	
Cc1ccc(O)c(N=Nc2ccc(S(=O)(=O)N3CCOCC3)cc2)c1	inconclusive: 2.94 µM [inhibitor, partial curve]	
Cc1c2c(nc3c(C)cccc13)OC(C)C2 (stereo not given)		inactive: 38.5%
COc1ccccc1NC(=O)CSc1nnnn1C1CCCC1		inactive: 17%
N/C(=N\N=C/c1ccc(F)cc1)N/N=C\c1ccc(F)cc1	inconclusive: 10.4 µM [inhibitor, single point]	
Cc1cc(C)c(S(=O)(=O)Cc2ccccc2)c(=O)[nH]1	inconclusive: 10.4 µM [inhibitor, partial curve, poor fit]	
Cc1ccc(-c2c(C)n([O-])c3c([n+]2=O)CCCCC3)cc1		inactive: -1.28%
O=C(CCN1C(=O)/C(=C/c2ccccc2Cl)SC1=S)NC1CCCC1	inconclusive: 5.22 µM [inhibitor, partial curve]	
O=c1c(S(=O)(=O)c2ccc(Cl)cc2)cn(Cc2ccccc2)c2ccc(F)cc12	active: 11.7 µM	
Cc1ccccc1N=C1Nc2ccccc2CS1		inactive: 438%
COC(=O)c1c(NC(=O)CN2C(=O)C(=O)N(CC(C)C)C2=O)sc(C)c1C	inconclusive: 18.5 µM [inhibitor, single point]	
Cc1ccc(NC2=NCC(=O)N2C2CCCC2)cc1C	inconclusive: 5.22 µM [inhibitor, partial curve]	
CC1(C)NC(=O)N(CCOCCOc2ccc3ccccc3c2Br)C1=O	active: 3.7 µM	
COc1ccccc1N1CCN(C(=O)c2ccc(-c3nc4ccccc4s3)o2)CC1	inconclusive: 18.5 µM [inhibitor, partial curve, poor fit]	
CC(=O)c1ccc(N2CCN(CC(=O)Nc3ccc(N4CCOCC4)cc3)CC2)cc1		inactive: -63.3% [at 5.75 µM]
COc1ccc(CCCc2nnc(SCC(=O)Nc3cc(C)ccc3C)o2)cc1	inconclusive: 11.7 µM [inhibitor, partial curve, poor fit]	
COC(=O)c1ccccc1NC(=O)c1ccc(COc2cc(C)cc(C)c2)o1	active: 4.15 µM	
COc1ccc(C(=O)NCC(=O)N2CCN(c3ncccn3)CC2)cc1OC	inconclusive: 11.7 µM [inhibitor, partial curve, poor fit]	
CN(C(=O)c1ccc(NC(=O)Cc2ccc(NC(=O)C3CCCN(C(=O)C4CCCCC4)C3)cc2)cc1)C1CC1 (stereo not given)	inconclusive: 4.65 µM [inhibitor, partial curve, poor fit]	

Retrieved by structure from above (5):
SMILES	Potency	activity change, negative = inhibition
CC(=O)c1ccc(N2CCN(CC(=O)Nc3ccc(N4CCOCC4)cc3)CC2)cc1		inactive: -63.3% [at 5.75 µM]
COC(=O)c1c(NC(=O)CN2C(=O)C(=O)N(CC(C)C)C2=O)sc(C)c1C	inconclusive: 18.5 µM [inhibitor, single point]	
COc1ccc(CCCc2nnc(SCC(=O)Nc3cc(C)ccc3C)o2)cc1	inconclusive: 11.7 µM [inhibitor, partial curve, poor fit]	
O=C(CCN1C(=O)/C(=C/c2ccccc2Cl)SC1=S)NC1CCCC1	inconclusive: 5.22 µM [inhibitor, partial curve]	
COc1ccc(Nc2ccccc2NC(=O)c2ccccc2Br)cc1	active: 2.08 µM	

Next part

SMILES	Potency	activity change, negative = inhibition
CCOC(=O)c1ccc(NC(=O)C2(c3ccc(Cl)cc3)CCCC2)cc1	inconclusive: 16.5 µM [inhibitor, partial curve, poor fit]	
Cc1cccc(OCCCC(=O)Nc2ccc(Cl)c(S(=O)(=O)N3CCOCC3)c2)c1	inconclusive: 18.5 µM [inhibitor, single point]	
CC1CCN(CCCOc2ccc(OCc3ccccc3)cc2)CC1	inconclusive: 10.4 µM [inhibitor, single point]	
C/C=C(\C)C(=O)N[C@@H](c1ccccc1)[C@@H](O)C(=O)O[C@H]1C[C@@]2(O)[C@@H](OC(=O)c3ccccc3)C3[C@](C)(C(=O)[C@H](OC(C)=O)C(=C1C)C2(C)C)[C@@H](O)C[C@H]1OC[C@@]31OC(C)=O (stereo not given in full)	active: 0.0329 µM	
Cc1cccc(C)c1Nc1nnc(SCC(=O)c2ccc(Br)s2)s1	inconclusive: 13.1 µM [inhibitor, partial curve, poor fit]	
Nc1nnc(SCC(=O)Nc2cccc(S(=O)(=O)N3CCCCC3)c2)s1	inconclusive: 18.5 µM [inhibitor, single point]	
Cc1ccccc1C(=O)NC(CC(C)C)C(=O)OCc1cc(=O)n2cc(Br)ccc2n1 (stereo not given)		inactive: 93.6%
Cc1csc2nc(SCC(=O)N3CCN(c4ccccc4)CC3)[nH]c(=O)c12		inactive: 4.6%
COc1ccc(N2CCN(C(=O)CNC(=O)c3ccco3)CC2)cc1	inconclusive: 18.5 µM [inhibitor, single point]	
COc1ccc(NC(=O)/C=C/c2ccccc2[N+](=O)[O-])c(OC)c1	inconclusive: 13.1 µM [inhibitor, single point]	
COc1ccccc1CNC(=O)CCC(=O)n1ncc2cc(C)ccc21	active: 2.62 µM	
CCN(CC)c1cc(C)c(C#N)c2nc3ccccc3n12	inconclusive: 1.31 µM [inhibitor, full curve]	
O=C(/C=C/c1ccc(Cl)cc1)NC(=S)N1C[C@H]2C[C@H](C1)c1cccc(=O)n1C2		inactive: -13.4%
Cc1cc(NC(=O)CCC(=O)N(c2cccc(F)c2)C(C(=O)NC2CCCC2)c2ccc(C)o2)no1 (stereo not given)	inconclusive: 10.4 µM [inhibitor, partial curve, poor fit]	
O=C(NCc1ccc(C(=O)O)cc1)OCc1ccccc1	inconclusive: 18.5 µM [inhibitor, single point]	
Cc1ccc(OCCN2CCN(c3ncnc4sc(C)c(C)c34)CC2)cc1	inconclusive: 20.8 µM [inhibitor, single point]	
CCSc1nc(C2CC2)cc(-c2cccs2)c1C#N		inactive: 2.23%
CN(c1ccccc1C(N)=O)S(=O)(=O)c1ccccc1	inconclusive: 14.7 µM [inhibitor, single point]	
CCc1nnc(NC(=O)c2ccc(S(=O)(=O)N(CC(C)C)CC(C)C)cc2)o1		inactive: 15.6%
Cc1ccc(/C=N/NC(=O)CNC(=O)Cc2ccccc2)o1		inactive: -10.5%
CCCN(CCC)CCCNC(=O)c1cn(CC)c2ccc(S(=O)(=O)N(C)C3CCCCC3)cc2c1=O	active: 10.4 µM	
Cc1ccc(CN(C)CC(=O)Nc2ccccc2C(=O)NC2CC2)o1	inconclusive: 5.22 µM [inhibitor, partial curve, poor fit]	
O=C(COC(=O)c1c(F)cccc1Cl)NC1CCCC1		inactive: 84.7%
Cc1cc(N)c2ccccc2[n+]1CCCCCCCCCC[n+]1c(C)cc(N)c2ccccc21		inactive: -99.9% [at 12.8 µM]

SMILES	Potency	activity change, negative = inhibition
COC(=O)N/N=C/c1ccc(-c2cc(Cl)cc(Cl)c2)o1	inconclusive: 16.5 µM [inhibitor, single point]	
CCOCCCNC(=O)/C(C#N)=C/c1ccccc1F	inconclusive: 0.465 µM [inhibitor, partial curve, poor fit]	
Cc1ccc(NC2=NCC(=O)N2CCc2ccccc2)cc1C	inconclusive: 18.5 µM [inhibitor, single point]	
CCn1cc(S(=O)(=O)Nc2cc(C(=O)OC)ccc2C)cn1		inactive: 6.17%
Cc1noc(C)c1C(=O)Nc1cccc(S(=O)(=O)N2CCCCC2)c1	active: 8.28 µM	
Cc1cnc[nH]1		inactive: 5.3%
COc1ccc(CNC(=S)NC2CCCCC2)cc1	inconclusive: 0.0415 µM [inhibitor, full curve, poor fit]	
Cc1cc([N+](=O)[O-])ccc1NCc1ccco1		inactive: -26.2%
O=C(CCN1C(=O)C2C3CCC(C3)C2C1=O)OCC(=O)c1ccc(Cl)cc1 (stereo not given)		inactive: -14.3%
CC(C)OCc1ccc(C(=O)N2CCN(S(=O)(=O)c3ccc(Br)s3)CC2)cc1	inconclusive: 18.5 µM [inhibitor, single point]	
CCOC(=O)N1CCC(NC(=O)c2cc3c(-c4ccc(OC)c(OC)c4)nn(C)c3s2)CC1	active: 9.28 µM	
Cc1cc(C)nc(N=Nc2c(O)n(Cc3ccc(Cl)cc3)c3ccccc23)n1	inconclusive: 16.5 µM [inhibitor, single point]	
C=CCn1c(=O)c2ccc(C(=O)NCc3ccccc3)cc2n(Cc2ccccc2Cl)c1=O		inactive: -0.291%
COc1ccc(S(=O)(=O)Nc2cccc(S(=O)(=O)NC3=NCCC3)c2)cc1[N+](=O)[O-]		inactive: 10.1%
CC(=O)C1=C(O)C(=O)N(c2ccc(C(=O)O)cc2)C1c1ccc([N+](=O)[O-])cc1 (stereo not given)	inconclusive: 18.5 µM [inhibitor, single point]	
CCCCNc1nc(-c2ccccc2)c(C(=O)OCC)cc1C#N	inconclusive: 0.522 µM [inhibitor, full curve, poor fit]	
Cc1ccccc1CC1(CO)CCCN(C(=O)c2cccc(Cl)c2)C1 (stereo not given)	inconclusive: 2.33 µM [inhibitor, partial curve, poor fit]	
N#Cc1cccc(Oc2ccc(-c3cnc4ccccc4n3)cc2)c1C#N	inconclusive: 18.5 µM [inhibitor, single point]	
COc1cc2sc(C)nc2c2ccccc12	inconclusive: 13.1 µM [inhibitor, partial curve]	
COCCN1C(=O)NC(=O)/C(=C\c2ccc(Br)cc2)C1=O	inconclusive: 0.117 µM [inhibitor, full curve, poor fit]	
C=CCn1c(CCNC(=O)c2cccs2)nnc1SCC(=O)Nc1cccc(Cl)c1C	inconclusive: 8.28 µM [inhibitor, partial curve]	
O=C(CSc1ncnc2scc(-c3ccc(Cl)cc3)c12)NCc1ccc2c(c1)OCO2	inconclusive: 7.38 µM [inhibitor, partial curve]	
